According to PubChem BioAssay AID1347075 (National Center for Advancing Translational Sciences (NCATS), 2019):
Values joined by “and” are separate entries in the source; they are usually repeats but may differ in a detail not shown here. Equal values may be shown once. In all, about 400,000 compounds went through this assay and about 5,500 (1.4%) were called active. The inconclusive results got no clear call from the source; some entries with a clear call stand among them for comparison. The call rests on the fitted dose curve; in most records, active means well fitted cell-killing curve with a large enough effect; inconclusive means small, poorly fitted or top-dose-only effect, or effect the other way; inactive means flat fitted curve, though single readings scatter. Potencies beside an inconclusive call are fits to weak or partial responses and may not hold up.
Potency means the concentration at half of the fitted maximal effect.

Test: qHTS assay for MDR1-selective chemotherapeutics: Primary screen using the parental adenocarcinoma cell KB-3-1; further: nearly all actives have a fitted effect of over 60% in size
Details: KB-3-1 viability, CellTiter-Glo ATP luminescence, 72 h; series mostly up to 46.1 µM
Procedure, shortened: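 Cells are dispensed, compounds pinned in, plates held at 37 °C for 72 h, then CellTiter-Glo is added and luminescence read after 10 minutes. Cell line: parental KB-3-1 in phenol-red-free DMEM, 10% FBS.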
In the case of `O=C(NCc1ccccc1)c1cc(C2COCCN2C(=O)OCCF)on1` (centres undefined), the Potency is reported as “inactive”.
With `CN(C)S(=O)(=O)N1CCN(CC(O)COc2ccc(C(=O)c3ccccc3)cc2)CC1` (centres undefined) the Potency was “inactive”.
For `Cc1ccc(Cl)cc1N1CCN(C(=O)c2cc(S(=O)(=O)N3CCCCC3)cn2C)CC1`, the Potency was “inactive”.
For `COc1ccc(C(=O)Oc2ccc(C3NC(=O)c4c(sc5c4CCN(C)C5)N3)cc2OC)cc1` (centres undefined), the Potency was “inactive”.
With `Cc1ccc(C(=O)NC(=S)Nc2cccc(-c3nc4ccccc4s3)c2)cc1` the Potency was “inactive”.
In the case of `Cc1ccccc1OCCn1nc(C(=O)O)c2ccccc2c1=O`, the Potency is reported as inconclusive: 20.6 µM [rising, partial curve, poor fit].
With `CC(C)CN(CC(C)C)c1nc(N)c(C#N)c(CC#N)c1C#N` the Potency was inconclusive: 25.9 µM [cytotoxic, partial curve, poor fit].
For `CCCC(=O)Nc1ccc(C(=O)Nc2nnc(COCC)s2)cc1`, the Potency was inconclusive: 8.2 µM [rising, partial curve, poor fit].
For `COc1ccc(Br)c(Cn2c(C)c(C(=O)NCc3cccc([N+](=O)[O-])c3)sc2=O)c1`, the Potency was “inactive”.
In the case of `C#CCN(Cc1ccccc1)S(=O)(=O)C=C`, the Potency is reported as inconclusive: 29.1 µM [cytotoxic, single point].
For `CC(=O)NCCNC(=O)c1ccc2c(=O)n(CCc3ccccc3)c(=O)[nH]c2c1`, the Potency was “inactive”.
For `C1=Nc2c(NCc3ccccc3)ncnc2Oc2ccccc21`, the Potency was inconclusive: 29.1 µM [cytotoxic, single point].
In the case of `NS(=O)(=O)c1ccc(CNC(=S)NC(=O)c2ccco2)cc1`, the Potency is reported as inconclusive: 29.1 µM [rising, single point].
With `O=C(Cc1ccc(Br)cc1)NC1CCN(Cc2ccccc2)CC1` the Potency was inconclusive: 29.1 µM [cytotoxic, single point].
For `CCCCC[C@@H](C)N1C[C@@H](COCc2ccccc2)Oc2cc(N3CC[C@H](O)C3)ccc2S1(=O)=O`, the Potency was inconclusive: 23.1 µM [cytotoxic, single point].
For `Cc1ccc(C)c2sc(NC(=O)c3ccc(N4C(=O)CCC4=O)cc3)nc12`, the Potency was “inactive”.
In the case of `O=C(CSc1nc(C2CC2)nc2ccccc12)Nc1ccccc1N1CCOCC1`, the Potency is reported as “inactive”.
With `Cc1cc(C)c(C(=O)COC(=O)C2CCN(c3ccc(C(F)(F)F)cn3)CC2)cc1C` the Potency was inconclusive: 0.0082 µM [cytotoxic, full curve].
For `O=C(Nc1cc(Sc2ccccn2)cc([N+](=O)[O-])c1)c1cccc(Cl)c1`, the Potency was inconclusive: 29.1 µM [cytotoxic, single point].
For `CC1=Nc2cc(C(=O)NCc3ccco3)ccc2Sc2ccc(C)cc21`, the Potency was inconclusive: 0.651 µM [cytotoxic, full curve, poor fit].
In the case of `O=C(Nc1ccc(F)cc1F)c1cc(-c2ccc3c(c2)OCO3)on1`, the Potency is reported as “inactive”.
For `O=C(NCCOc1ccc(Cl)cc1)c1cccc(S(=O)(=O)N2CCCC2)c1`, the Potency was inconclusive: 18.4 µM [cytotoxic, single point].
For `CN(C)S(=O)(=O)N1CCC(Oc2cccc(C(=O)NCCCC3CCCC3)c2)CC1`, the Potency was active: 14.6 µM.
For `O=C(NCC(c1cccs1)N1CCOCC1)c1ccc(Cl)s1` (centres undefined), the Potency was inconclusive: 4.11 µM [cytotoxic, partial curve, poor fit].
In the case of `COc1ccc(/C=N/NS(=O)(=O)c2ccccc2)cc1OC`, the Potency is reported as “inactive”.
For `COc1ccc(C(=O)N=C2CCC(C#N)=C3c4cc(OC)c(OC)cc4CCN23)cc1`, the Potency was inconclusive: 16.4 µM [cytotoxic, single point].
In the case of `C(=N\n1cnnc1)/c1cccc2ccccc12`, the Potency is reported as inconclusive: 29.1 µM [cytotoxic, single point].
In the case of `CCC(=O)n1nc(-c2ccc(Cl)cc2)nc1N`, the Potency is reported as inconclusive: 13 µM [cytotoxic, partial curve, poor fit].
In the case of `O=C(Nc1nc2ccccc2n1Cc1ccccc1)c1ccc(COc2ccccc2[N+](=O)[O-])o1`, the Potency is reported as “inactive”.
In the case of `O=C(Nc1nnc(-c2cccs2)s1)C1CC1`, the Potency is reported as inconclusive: 29.1 µM [rising, single point].
In the case of `CCCc1nc(SCC(=O)N2CCCc3ccccc32)c2c(=O)n(C)c(=O)n(C)c2n1`, the Potency is reported as inconclusive: 23.1 µM [cytotoxic, single point].
For `O=C(CN1CCN(S(=O)(=O)c2ccccc2)CC1)Nc1ccc(Cl)c(Cl)c1`, the Potency was inconclusive: 35.5 µM [cytotoxic, single point].
For `CC(=O)N1c2ccc(S(=O)(=O)N3CCCCC3)cc2CC1C(=O)Nc1ccc(C)cc1` (centres undefined), the Potency was “inactive”.
With `COc1ccc(N(C)C(=O)c2cc3c(s2)-c2ccc(Cl)cc2S(=O)(=O)C3)c(OC)c1` the Potency was inconclusive: 18.4 µM [cytotoxic, single point].
In the case of `COc1ccccc1NC(=O)C(NC(=O)c1ccc(C)cc1)c1ccccc1` (centres undefined), the Potency is reported as “inactive”.
In the case of `O=C(OCC(=O)N1CCN(C(=O)c2ccco2)CC1)c1cccc(F)c1`, the Potency is reported as “inactive”.
For `O=C(Nc1ccc(F)c(F)c1)c1ccc(F)c(S(=O)(=O)N2CCC3(CC2)OCCO3)c1`, the Potency was inconclusive: 29.1 µM [cytotoxic, single point] and inconclusive: 16.4 µM [cytotoxic, single point].
For `O=C(Nc1cccc(C(F)(F)F)c1)C1Cc2c(-c3ccc(Cl)cc3)ccnc2O1` (centres undefined), the Potency was inconclusive: 29.1 µM [cytotoxic, single point].
In the case of `O=C(CCN1C(=O)/C(=C\c2ccccc2)SC1=S)N1CCOCC1`, the Potency is reported as inconclusive: 25.9 µM [cytotoxic, single point].
For `Cc1cccc(C)c1OCCn1c(C2CC(=O)N(Cc3ccc(F)cc3)C2)nc2ccccc21` (centres undefined), the Potency was “inactive”.
With `Cc1ccc(-c2nnc(N3CCN(c4ccccn4)CC3)c3ccccc23)cc1` the Potency was inconclusive: 29.1 µM [cytotoxic, single point].
In the case of `CCOC(=O)C1CCCN(C(=O)CCNS(=O)(=O)c2ccc(Br)cc2)C1` (centres undefined), the Potency is reported as inconclusive: 20.6 µM [cytotoxic, partial curve].
In the case of `O=C(Nc1ccccc1Cl)N1CCN(c2ccccn2)CC1`, the Potency is reported as inconclusive: 23.1 µM [rising, single point].
For `COc1cc2c(cc1OC)C(COc1ccc3c(C)cc(=O)oc3c1)N(C(=O)c1ccco1)CC2` (centres undefined), the Potency was inconclusive: 2.31 µM [rising, full curve, poor fit].
